Assay results taken from article PMC6410177.
Substitutions are numbered along the chain they refer to. No constants are given. Whether binding was seen depends on the method and setting. Binding seen in cells or lysates may run through a third protein. Binding can be weak; no strength is given. Where a sequence is shown, tags or fusion partners need not be part of it.

B1: AMOTL1-AAEY367 (protein, UniProt Q8IY63 1-956)
chain: MWRAKLRRGTCEPAVKGSPSACYSPSSPVQVLEDSTYFSPDFQLYSGRHETSALTVEATSSIREKVVEDPLCNFHSPNFLRISEVEMRGSEDAAAGTVLQRLIQEQLRYGTPTENMNLLAIQHQATGSAGPAHPTNNFSSTENLTQEDPQMVYQSARQEPQGQEHQVDNTVMEKQVRSTQPQQNNEELPTYEEAKAQSQFFRGQQQQQQQQGAVGHGYYMAGGTSQKSRTEGRPTVNRANSGQAHKDEALKELKQGHVRSLSERIMQLSLERNGAKQHLPGSGNGKGFKVGGGPSPAQPAGKVLDPRGPPPEYPFKTKQMMSPVSKTQEHGLFYGDQHPGMLHEMVKPYPAPQPVRTDVAVLRYQPAAEYGVTSRPCQLPFPSTMQQHSPMSSQTSSASGPLHSVSLPLPLPMALGAPQPPPAASPSQQLGPDAFAIVERAQQMVEILTEENRVLHQELQGYYDNADKLHKFEKELQRISEAYESLVKSTTKRESLDKAMRNKLEGEIRRLHDFNRDLRDRLETANRQLSSREYEGHEDKAAEGHYASQNKEFLKEKEKLEMELAAVRTASEDHRRHIEILDQALSNAQARVIKLEEELREKQAYVEKVEKLQQALTQLQSACEKREQMERRLRTWLERELDALRTQQKHGNGQPANMPEYNAPALLELVREKEERILALEADMTKWEQKYLEESTIRHFAMNAAATAAAERDTTIINHSRNGSYGESSLEAHIWQEEEEVVQANRRCQDMEYTIKNLHAKIIEKDAMIKVLQQRSRKDAGKTDSSSLRPARSVPSIAAATGTHSRQTSLTSSQLAEEKKEEKTWKGSIGLLLGKEHHEHASAPLLPPPPTSALSSIASTTAASSAHAKTGSKDSSTQTDKSAELFWPSMASLPSRGRLSTTPAHSPVLKHPAAKGTAEKLENSPGHGKSPDHRGRVSSLLHKPEFPDGEMMEVLI
B2: AMOTL1-AAEY310 (protein, UniProt Q8IY63 1-956)
chain: B1 chain with P310A, P311A, A367P, A368P
B3: angiomotin-like 1 (AMOTL1), Flag-tagged, full length (protein, UniProt Q8IY63 1-956)
chain: B1 chain with A367P, A368P
B4: AMOTL1-AAEY310,367 (double mutant) (protein, UniProt Q8IY63 1-956)
chain: B1 chain with P310A, P311A

molecular target: NEDD4-1, Myc-tagged; experiment: co-IP

binding, binds:
B1, B2, B3, B4
